From patent EP4613775A1
These are yes or no findings as the source states them, for the method shown. Some binding calls cover weakened binding; strength is not graded here.

Molecular target: T1, kinesin family member C3 (human) (UniProt Q9BVG8)
T1 sequence (looked up): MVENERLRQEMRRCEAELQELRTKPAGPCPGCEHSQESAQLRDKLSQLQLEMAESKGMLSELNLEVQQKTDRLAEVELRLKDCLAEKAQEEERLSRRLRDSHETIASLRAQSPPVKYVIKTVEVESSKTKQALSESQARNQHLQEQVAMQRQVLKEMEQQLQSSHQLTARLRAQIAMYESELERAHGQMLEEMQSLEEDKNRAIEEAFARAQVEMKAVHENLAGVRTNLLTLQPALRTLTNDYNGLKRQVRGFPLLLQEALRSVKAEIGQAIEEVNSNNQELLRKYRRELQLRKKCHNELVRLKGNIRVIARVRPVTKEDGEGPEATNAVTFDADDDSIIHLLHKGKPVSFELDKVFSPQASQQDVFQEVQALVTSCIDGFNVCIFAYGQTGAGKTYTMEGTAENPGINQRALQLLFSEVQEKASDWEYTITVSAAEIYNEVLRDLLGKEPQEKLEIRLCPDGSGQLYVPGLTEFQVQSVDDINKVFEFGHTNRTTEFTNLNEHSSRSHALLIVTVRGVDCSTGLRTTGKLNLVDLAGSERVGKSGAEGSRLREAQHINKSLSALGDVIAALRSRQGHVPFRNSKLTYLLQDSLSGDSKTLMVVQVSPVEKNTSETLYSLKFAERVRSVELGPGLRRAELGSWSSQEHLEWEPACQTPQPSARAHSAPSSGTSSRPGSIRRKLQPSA
Assay: custom ELISA

binding: binds
B1: recombinant antibody P1-F6 (antibody, V domains shown)
VH: QVPLKESGPALVKPTRTLTLTCTFSGFSLSTNGVSVGWIRQPPGKALDWLALIYWNDDKRYSPSLKNRLTITKDTSKNLVVLRMTNMDPVDTATYYCAHRPIASSRDGFDYWGQGTLVTVSS
VL: DIQMTQFPSTLSASVGETVTISCRASQSVSGWLAWYQQKPGKAPKLLMYKASALENGVPSRFSGSGSGTEFTLTISSLQPDDFATYYCQQYNGFPFTFGPGTKVDIN
